Laboratory results from PMC8429438.
Results are given in words; binding and its absence hold for the method and conditions named. In cells and extracts the contact can be indirect. A yes stands for co-enrichment or nearness to the bait. Other partners may have been found.

B1: DnaJC6 (mouse brain) (protein, UniProt Q80TZ3 1-938)
chain: MTNPKSGVAESAGLACSRAAAGENRMKDSENKGASSPDMEPSYGGGLFDMVKGGAGRLFSNLKDNLKDTLKDTSSRVIQSVSSYTKGDLDFTYVTSRIIVMSFPVDSVDIGFRNQVDDIRSFLDSRHLDHYTVYNLSPKSYRTAKFHSRVSECSWPIRQAPSLHNLFAVCRNMYNWLLQNPKNVCVVHCLDGRAASSILVGAMFIFCNLYSTPGPAVRLLYAKRPGIGLSPSHRRYLGYMCDLLADKPYRPHFKPLTIKAITVSPVPFFNKQRNGCRPYCDVLIGETKIYSTCTDFERMKEYRVQDGKIFIPLNITVQGDVIVSMYHLRSTIGSRLQAKVTNTQIFQLQFHSGFIPLDTTVLKFTKPELDACDVPEKYPQLFQVTLDIEVQPQDKVIDLTPPWEHYCTKDVNPSILFSSQQEHQDTLALGGQAPADLPPDHPRNLGQGGFFASLCWQDQKSEKSRCEEDHAALVNQESEQSDDELLTLSSPHGNAEGDKPHGAKKPGKKQQEPAAPPPPEEVDLLGLEGSDVSTNFSSLAAPPSNSELLSDLFGGVGATGPAQAGQAGVEDVFHPSGPVSAQSTPRRTATSASASPTLRVGEGATFDPFGAPAKPPGQDLLGSFLNTSSASSDPFLQPTRSPSPTVHASSTPAVNIQPDIAGGWDWHTKPGGFGMGSKSAATSPTGSSHGTPTHQSKPQTLDPFADLGTLGSSSFASKPTTPTGLGGGFPPLSSPQKASPQPMGGGWQQPAGYNWQQTQSKPQSSMPHSSPQNRPNYNVSFSAMPAGQSERGKGSTNLEGKQKAADFEDLLSSQGFNAHKDKKGPRTIAEMRKEEMAKEMDPEKLKILEWIEGKERNIRALLSTMHTVLWAGETKWKPVGMADLVTPEQVKKVYRRAVLVVHPDKATGQPYEQYAKMIFMELNDAWSEFENQGQKPLY
B2: DnaJC7 (mouse brain) (protein, UniProt Q9QYI3 1-494)
chain: MAATAECDVVMAATEPELLEDEDAKREAESFKEQGNAYYAKKDYNEAYNYYTKAIDMCPNNASYYGNRAATLMMLGRFREALGDAQQSVRLDDSFVRGHLREGKCHLSLGNAMAACRSFQRALELDHKNAQAQQEFKNANAVMEYEKIAEVDFEKRDFRKVVFCMDRALEFAPACHRFKILKAECLAMLGRYPEAQFVASDILRMDSTNADALYVRGLCLYYEDCIEKAVQFFVQALRMAPDHEKACVACRNAKALKAKKEDGNKAFKEGNYKLAYELYTEALGIDPNNIKTNAKLYCNRGTVNSKLRQLEDAIEDCTNAVKLDDTYIKAYLRRAQCYMDTEQFEEAVRDYEKVYQTEKTKEHKQLLKNAQLELKKSKRKDYYKILGVDKNASEDEIKKAYRKRALMHHPDRHSGASAEVQKEEEKKFKEVGEAFTILSDPKKKTRYDSGQDLDEEGMNMGDFDANNIFKAFFGGPGGFSFEASGPGNFYFQFG
B3: DnaJC5 (mouse brain) (protein, UniProt P60904 1-198)
chain: MADQRQRSLSTSGESLYHVLGLDKNATSDDIKKSYRKLALKYHPDKNPDNPEAADKFKEINNAHAILTDATKRNIYDKYGSLGLYVAEQFGEENVNTYFVLSSWWAKALFVVCGLLTCCYCCCCLCCCFNCCCGKCKPKAPEGEETEFYVSPEDLEAQLQSDEREATDTPIVIQPASATETTQLTADSHPSYHTDGFN
B4: DnaJC7 (endogenous, PS19 mouse brain) (protein, UniProt Q9QYI3 1-494)
chain: B2 chain
B5: DnaJC5 (endogenous, PS19 mouse brain) (protein, UniProt P60904 1-198)
chain: B3 chain
B6: DnaJC6 (endogenous, PS19 mouse brain) (protein, UniProt Q80TZ3 1-938)
chain: B1 chain

Each binder was assayed against 1N4R P301S tau from PS19 tauopathy mouse brain (human) (assay: affinity purification with mass spectrometry; tau immunoprecipitated with HJ8.5 from PS19 mouse brains of weeks 1 through 6, Superdex 200, mass spectrometry (Proteome Discoverer, mouse proteome)).

binding, binds:
B1, B2, B3

The binders below were run against human 1N4R P301S tau expressed in PS19 tauopathy mouse brain (human) (assay: affinity purification with mass spectrometry; soluble tau immunopurified from PS19 mouse brains (weeks 1-6) with the HJ8.5 anti-human tau antibody and protein G-agarose, Superdex 200 SEC, LC-MS/MS searched against the mouse proteome).

binding, binds:
B4, B5, B6
